# Measurements as given in PubChem BioAssay AID1688 (National Center for Advancing Translational Sciences (NCATS), 2009).
# The whole screen tested about 220,000 compounds, of which about 2,400 (1.1%) were called active. The shares of active, inactive and inconclusive entries below differ from those in the screen. Calls follow the shape of the dose curve; as a rule, active = well fitted inhibition curve with a large enough effect; inconclusive = small, poorly fitted or top-dose-only effect, or effect the other way; inactive = no such curve, though single readings can be large or run the other way. Potencies beside an inconclusive call are fits to weak or partial responses and may not hold up.
# Assay: qHTS Multiplex Assay to Identify Dual Action Probes in a Cell Model of Huntington: Aggregate Formation (GFP); also: nearly all actives have a fitted effect of over 60% in size
# Conditions: PC12 HttQ103-GFP aggregates, Acumen cytometry, 40 h; activity change, negative = inhibition: at 46.1 µM (top of the series) unless noted
# How it was run: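 PC12 cells stably carrying ecdysone-inducible HTT exon 1 Q103–GFP were induced with tebufenozide (100 nM final) and treated with library compounds in titration. GFP aggregates in lysates were counted by laser scanning cytometry.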
# % is scaled to controls: 0 for no effect and ±100 for the full control effect; potency is read from the fitted curve at half-maximal effect.
SMILES,"activity change, negative = inhibition",Potency
COc1ccc(OC)c(/C=N/NC(=O)c2cc3c(OC)c(OC)ccc3[nH]2)c1,inactive: 9.15%,
O=C(Nc1ccc(Cc2ccncc2)cc1)c1ccc(S(=O)(=O)N2CCOCC2)cc1,,"inconclusive: 14.1 µM [inhibitor, single point]"
CC(=O)c1cccc(OCC(=O)c2cc(C)n(-c3cc(C)on3)c2C)c1,,active: 12.6 µM
O=C(COC(=O)c1ccccc1-c1ccccc1[N+](=O)[O-])c1ccccc1,,"inconclusive: 15.8 µM [inhibitor, single point]"
Cc1cc(=O)[nH]c(SCCCOc2ccc3c(c2)CCC3)n1,,"inconclusive: 35.5 µM [inhibitor, single point]"
CCOC(=O)N1CCC(NC(=O)C2CCCN(Cc3nc(-c4cccc(Cl)c4)oc3C)C2)CC1 (stereo not drawn),,active: 7.94 µM
Cc1cccc(N2CCN(C(=O)c3cc(S(=O)(=O)N(C)C)ccc3N3CCCC3)CC2)c1C,,"inconclusive: 11.2 µM [inhibitor, single point]"
Cc1cc(C)c2c(NC(=S)NC(=O)c3ccccc3)n[nH]c2n1,inactive: 18.7% [at 9.22 µM],
COc1ccc(C(=O)Nc2ccccc2C(=O)O)cc1Cl,,"inconclusive: 35.5 µM [activator, single point]"
Cc1ccccc1OCCN1C(=O)c2ccccc2C1=O,inactive: 4.51%,
Cc1ccc(C2C(C#N)=C(N)Oc3c2c(=O)n(C)c(=O)n3C)cc1 (stereo not drawn),,"inconclusive: 2.82 µM [activator, single point]"
CCSc1nc2c(c(=O)[nH]1)C(c1ccccn1)C1=C(CC(C)(C)CC1=O)N2 (stereo not drawn),inactive: -4.48%,
O=C(CSc1cn(CCNC(=O)c2cccs2)c2ccccc12)NCc1ccccc1,,"inconclusive: 14.1 µM [inhibitor, single point]"
CCn1c(SCC(=O)Nc2nc3ccc(C)cc3s2)nc2c(c1=O)SC(C)C2 (stereo not drawn),,"inconclusive: 5.01 µM [inhibitor, partial curve]"
NC(=O)c1ccc(N2CCN(S(=O)(=O)c3ccccc3)CC2)c([N+](=O)[O-])c1,,"inconclusive: 2 µM [inhibitor, full curve]"
COc1ccc(C(=O)/C(C#N)=N/Nc2ccccc2[N+](=O)[O-])cc1,,"inconclusive: 12.6 µM [inhibitor, single point]"
CC(C)(C)n1[nH]c2c3c(ccc2c1=O)C(=O)c1ccccc1C3=O,,"inconclusive: 14.1 µM [inhibitor, single point]"
COc1ccc(C(=O)N2CCOC23CCN(c2ncccn2)CC3)cc1,,"inconclusive: 4.47 µM [activator, full curve]"

# Taken from above:
# In activity change, negative = inhibition, `CCSc1nc2c(c(=O)[nH]1)C(c1ccccn1)C1=C(CC(C)(C)CC1=O)N2` (stereo not drawn) is entered as inactive: -4.48%
# In Potency, `CCOC(=O)N1CCC(NC(=O)C2CCCN(Cc3nc(-c4cccc(Cl)c4)oc3C)C2)CC1` (stereo not drawn) is entered as active: 7.94 µM
